According to patent US20160333404A1, “METHODS FOR TREATING HCV” (priority 2012, published 2016):
Some of these results come from one statement about several compounds together.

Test system: miR-122
Assay: Serum miR-122 expression by microRNA real-time PCR, Example 2, 3 days polymerase inhibitor monotherapy then with P/R
Assay type: in vivo, human
Conditions: treatment-naïve GT1 subjects, day 3
Method: Sample preparation and microRNA real-time PCR. Serum samples were collected at baseline (“BASE”), week 2 on-treatment (“W2”), week 10 on-treatment (“W10”), and 8 weeks after completing the 12 week regimen (“Post Week 8”) and frozen until analysis. Total RNA was extracted from serum using the Qiagen miRNeasy® Mini Kit. Serum was thawed on ice and centrifuged at 3000×g for 5 min in a 4° C. microcentrifuge. An aliquot of 200 μL of serum per sample was transferred to a new microcentrifuge tube and 750 μl of a Qiazol mixture containing 1.25 μg/mL of MS2 bacteriophage RNA was added to the serum. The tube was mixed and incubated for 5 min followed by the addition of 200 μL chloroform. […]
15 μl RNA was reverse transcribed in 75 μl reactions using the miRCURY LNA™ Universal RT microRNA PCR, Polyadenylation and cDNA synthesis kit (Exiqon). cDNA was diluted 50× and assayed in 10 ul PCR reactions according to the protocol for miRCURY LNA™ Universal RT microRNA PCR; each microRNA was assayed once by qPCR on the microRNA Ready-to-Use PCR, Human panel I and panel II. […] The amplification curves were analyzed using the Roche LC software, both for determination of Cp (by the 2nd derivative method) and for melting curve analysis. All data was normalized to the average of assays detected in all samples (average—assay Cp). […]

| SMILES | reduction in serum miR-122 expression levels after three days of monotherapy |
| --- | --- |
| COc1c(-c2ccc3cc(NS(C)(=O)=O)ccc3c2)cc(-n2ccc(=O)[nH]c2=O)cc1C(C)(C)C [Compound 2, N-(6-(3-tert-butyl-5-(2,4-dioxo-3,4-dihydropyrimidin-1(2H)-yl)-2-methoxyphenyl)naphthalen-2-yl)methanesulfonamide] | greater than 3 fold |
| COc1c(/C=C/c2ccc(NS(C)(=O)=O)cc2)cc(-n2ccc(=O)[nH]c2=O)cc1C(C)(C)C [Compound 4, (E)-N-(4-(3-tert-butyl-5-(2,4-dioxo-3,4-dihydropyrimidin-1(2H)-yl)-2-methoxystyryl)phenyl)methanesulfonamide] | greater than 3 fold |
